In PMC5651264:
No constants are given. Whether binding was seen depends on the method and setting. For some assays here: In cells and extracts the contact can be indirect.

By UniProt entry, the sequences of proteins in these tests, tags left out. Where a name states a change or a piece, a line headed by the entry shows the natural chain unless it says otherwise.
UniProt Q9S7R5: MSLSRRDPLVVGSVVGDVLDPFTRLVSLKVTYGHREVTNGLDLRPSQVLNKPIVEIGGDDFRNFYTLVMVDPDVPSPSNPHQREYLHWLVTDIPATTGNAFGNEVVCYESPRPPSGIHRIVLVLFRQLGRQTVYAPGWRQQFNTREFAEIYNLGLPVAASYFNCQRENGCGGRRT
UniProt Q9FLH8: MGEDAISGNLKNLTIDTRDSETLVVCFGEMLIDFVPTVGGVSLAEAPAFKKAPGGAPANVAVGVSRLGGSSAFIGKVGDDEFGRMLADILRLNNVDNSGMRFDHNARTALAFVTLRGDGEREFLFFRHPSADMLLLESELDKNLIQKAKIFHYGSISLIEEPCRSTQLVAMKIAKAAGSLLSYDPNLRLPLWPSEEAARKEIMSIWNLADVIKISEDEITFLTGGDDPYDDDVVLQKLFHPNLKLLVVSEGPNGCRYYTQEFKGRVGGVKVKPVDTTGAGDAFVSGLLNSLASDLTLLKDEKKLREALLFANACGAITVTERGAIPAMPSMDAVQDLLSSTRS

Columns and labels:
[1] = biological target: GST-tagged TWIN SISTER OF FT (GST-TSF) (Arabidopsis thaliana) (UniProt Q9S7R5); assay: pull-down; GST only or GST-TSF immobilised on glutathione-Sepharose 4B beads, incubated with purified FRK6-His or FRK7-His for 1 h at 4°C; four washes with GST lysis buffer (50 mM Tris-HCl pH 7.5, 0.1 M NaCl, 0.05% Tween-20, 1 mM EDTA); anti-His and anti-GST immunoblot; both purified
[2] = biological target: TSF fused with the N-terminal fragment of YFP (TSF-NYFP) (Arabidopsis thaliana) (UniProt Q9S7R5); assay: split reporter; BiFC with N- and C-terminal YFP fragments (pUC-SPYNE, pUC-SPYCE) co-transfected into Arabidopsis leaf protoplasts, 12 h, confocal microscopy

| binding [1] | binding [2] | Substance |
| --- | --- | --- |
| no binding |  | His-tagged FRUCTOKINASE7 (FRK7-His) (from UniProt Q9FLH8) (enzyme) |
|  | no binding | FRK7 fused with the C-terminal fragment of YFP (FRK7-CYFP) (from UniProt Q9FLH8) (enzyme) |
